Laboratory results: US10208012B2, “Compounds for treating inflammatory and hyperproliferative diseases” (Board of Regents, The University of Texas System, priority 2013, dated 2019)
Some results were stated once for a whole list of compounds, not compound by compound.

System: MCL cells (Mino, DB, Z-138, JMP-1), DLBCL cells (MS, DB, LR, LP) and follicular lymphoma cells (CJ)
Assay: Comparison with natural curcumin in NHL subtypes, thymidine incorporation, 96 hrs
Format: cell-based
Conditions: four MCL, four LBCL and one follicular lymphoma cell line

## O=C1/C(=C/c2ccc(Cl)c([N+](=O)[O-])c2)CSC/C1=C\c1ccc(Cl)c([N+](=O)[O-])c1 [Turmerax 5, 3,5-bis[(3-nitro-4-chlorophenyl)methylene]-tetrahydrothiopyran-4-one]
  IC50 lower than IC50 of wild type curcumin: 50-150 fold
